Assay: general procedure: Fmoc solid-phase peptide synthesis; 2-chlorotrityl chloride resin; Oxyma Pure/DIC
Conditions: for step yield: late stage modification step

Substance Biseokeaniamide A has a step yield of 67%.

In the case of Biseokeaniamide B, the step yield is reported as 53%.

With biseokeaniamide C the difficulty met (coupling step) was “led to complete loss of stereochemical integrity at the Val α-position” and the step yield was 69%.

From PMC8162360 (Chemical Science, 2020)
